Assay results taken from doi:10.1101/2020.05.12.091587.
Results are given in words; binding and its absence hold for the method and conditions named. Some results given as binding are weak or reduced against the parent protein; the word gives no strength.

Amino acid sequences for entries named in this document (tags omitted).
UniProt P07737: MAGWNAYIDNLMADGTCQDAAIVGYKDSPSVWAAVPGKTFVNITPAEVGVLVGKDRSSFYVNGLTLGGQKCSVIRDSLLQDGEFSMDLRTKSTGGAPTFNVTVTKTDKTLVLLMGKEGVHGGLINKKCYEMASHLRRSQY

Molecular target: Recombinant Human Profilin 1 (human) (UniProt P07737)
Experiment: intrinsic tryptophan fluorescence emission spectra

binding: binds weakly
B1: proline-rich peptide ac…am, covering residues 166-175 of hCPEB3 (peptide)
peptide: GPPPPAPAPQP
modifications: N-terminal acetyl; C-terminal amide
